{"source": "PubChem BioAssay AID1259331 (Drosophila RNAi Screening Center, 2017)", "screen": "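Genes whose knock-down changes cell survival under toxic zinc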 (primary screen)", "system": "Drosophila S2R+ cells", "knock-down reagent": "long dsRNA against Drosophila genes", "timing": "5 days (4 days knock-down, then 1 day zinc)", "conditions": "zinc chloride at 15 mM final level for 1 day", "read-out": "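Total cellular ATP measured by luciferase luminescence as a viability proxy, turned into Z scores from three plate copies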", "reading the numbers": "mean Z score: higher = more ATP than other wells, better survival under zinc; ATP luminescence: higher = more ATP, more viable cells", "hit rule": "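a reagent is called a hit when its Z score is above 1.5 or below -1.5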", "meaning of the calls": "active = hit, ATP up or down; inactive = not a hit", "note": "The whole screen tested about 3,100 reagents; this is a part drawn at random. Over the whole deposit, 126 (4.1%) were called active. 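Calls are per reagent; zinc was so toxic that few knock-downs lowered ATP further, so most hits raise ATP.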 Raw values are not corrected between plates. Entries without a mark were called inactive. The numbers tell different reagents against one gene apart. Names joined by + are all predicted targets of the reagent. Not stated in the record: the amount of reagent."}
{"target": "Kap-alpha1 (GeneID 40160)", "reagent no.": 1, "mean Z score": -0.796, "ATP luminescence, replicate 1": 55162, "ATP luminescence, replicate 2": 50618}
{"target": "Cds (GeneID 43950)", "reagent no.": 1, "mean Z score": -0.369, "ATP luminescence, replicate 1": 28622, "ATP luminescence, replicate 2": 28519}
{"target": "ninaE (GeneID 42367)", "reagent no.": 1, "mean Z score": 0.215, "ATP luminescence, replicate 1": 35599, "ATP luminescence, replicate 2": 61181}
{"target": "ninaE (GeneID 42367)", "reagent no.": 2, "mean Z score": -0.449, "ATP luminescence, replicate 1": 49572, "ATP luminescence, replicate 2": 40331}
{"target": "COX6AL2 + Ir75d", "reagent no.": 1, "mean Z score": 0.0951, "ATP luminescence, replicate 1": 78280, "ATP luminescence, replicate 2": 62261}
{"target": "COX6AL2 + Ir75d", "reagent no.": 2, "mean Z score": -0.232, "ATP luminescence, replicate 1": 60632, "ATP luminescence, replicate 2": 56808}
{"target": "CG17036 (GeneID 34679)", "reagent no.": 1, "mean Z score": 0.527, "ATP luminescence, replicate 1": 57614, "ATP luminescence, replicate 2": 43091}
{"target": "CG17036 (GeneID 34679)", "reagent no.": 2, "mean Z score": -0.21, "ATP luminescence, replicate 1": 56945, "ATP luminescence, replicate 2": 54664}
{"target": "acs (GeneID 38264)", "reagent no.": 1, "mean Z score": -0.647, "ATP luminescence, replicate 1": 58248, "ATP luminescence, replicate 2": 59329}
{"target": "acs (GeneID 38264)", "reagent no.": 2, "mean Z score": -0.659, "ATP luminescence, replicate 1": 41258, "ATP luminescence, replicate 2": 49880}
{"target": "glec (GeneID 42571)", "reagent no.": 1, "mean Z score": -0.83, "ATP luminescence, replicate 1": 32599, "ATP luminescence, replicate 2": 46468}
{"target": "glec (GeneID 42571)", "reagent no.": 2, "mean Z score": -0.478, "ATP luminescence, replicate 1": 44685, "ATP luminescence, replicate 2": 41651}
{"target": "CG10062 (GeneID 37224)", "reagent no.": 1, "mean Z score": -0.799, "ATP luminescence, replicate 1": 41976, "ATP luminescence, replicate 2": 43041}
{"target": "MFS9 (GeneID 42426)", "reagent no.": 1, "mean Z score": -0.356, "ATP luminescence, replicate 1": 40340, "ATP luminescence, replicate 2": 41599}
{"target": "ogre (GeneID 45382)", "reagent no.": 1, "mean Z score": -0.263, "ATP luminescence, replicate 1": 44236, "ATP luminescence, replicate 2": 43897}
{"target": "ogre (GeneID 45382)", "reagent no.": 2, "mean Z score": "2.07 (active)", "ATP luminescence, replicate 1": 83563, "ATP luminescence, replicate 2": 90596}

Part of the list above, limited to “ATP luminescence, replicate 2”.
ninaE (GeneID 42367) #2: 40331
COX6AL2 + Ir75d #1: 62261
COX6AL2 + Ir75d #2: 56808
CG17036 (GeneID 34679) #1: 43091

The list goes on.
{"target": "galene (GeneID 38133)", "reagent no.": 1, "mean Z score": -0.0901, "ATP luminescence, replicate 1": 67372, "ATP luminescence, replicate 2": 75467}
{"target": "galene (GeneID 38133)", "reagent no.": 2, "mean Z score": 0.0661, "ATP luminescence, replicate 1": 43777, "ATP luminescence, replicate 2": 44891}
{"target": "CG6763 (GeneID 42754)", "reagent no.": 1, "mean Z score": -0.306, "ATP luminescence, replicate 1": 35839, "ATP luminescence, replicate 2": 50515}
{"target": "CG6763 (GeneID 42754)", "reagent no.": 2, "mean Z score": "1.53 (active)", "ATP luminescence, replicate 1": 84598, "ATP luminescence, replicate 2": 89721}
{"target": "spdo (GeneID 318559)", "reagent no.": 1, "mean Z score": 0.676, "ATP luminescence, replicate 1": 86410, "ATP luminescence, replicate 2": 72620}
{"target": "spdo (GeneID 318559)", "reagent no.": 2, "mean Z score": -0.218, "ATP luminescence, replicate 1": 70750, "ATP luminescence, replicate 2": 45097}
{"target": "CG4615 (GeneID 31656)", "reagent no.": 1, "mean Z score": -0.478, "ATP luminescence, replicate 1": 66840, "ATP luminescence, replicate 2": 63856}
{"target": "CG4615 (GeneID 31656)", "reagent no.": 2, "mean Z score": "5.72 (active)", "ATP luminescence, replicate 1": 1.05e5, "ATP luminescence, replicate 2": 1.17e5}
{"target": "CG4615 (GeneID 31656)", "reagent no.": 3, "mean Z score": -0.0333, "ATP luminescence, replicate 1": 60306, "ATP luminescence, replicate 2": 54281}
